Primary screen of a compound library

Data taken from ChEMBL document CHEMBL3988442, “University of Dundee, Small-Polar-MMV Screening Library” (2021).

The filed quantity is “Percent Effect” (%).
The controls that fix the scale are not given in the record; negative values are as filed.
This is an unselected part of the compounds tested.
A dash means the value is not listed here; it may have been measured.

Mtb growth Cornell: 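Whole-cell assay for inhibitors of Mycobacterium tuberculosis growth, labelled Cornell in the record; the read-out is not stated. The concentration is filed as 10 mM, unlikely as a test dose, so the dose is not known. The record gives no direction; compounds strong in two other growth screens of this library score well above the rest, so higher reads as stronger inhibition. Of about 53,000 compounds tested this way, about 900 (1.7%) reached 50% or more in at least one test.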
Mtb heat-shock: 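Assay on Mycobacterium tuberculosis, filed only as a heat shock assay from Cornell; the read-out is not stated. The concentration is filed as 10 mM, unlikely as a test dose, so the dose is not known. Direction is inferred from retests: higher values go with stronger inhibition. Of about 69,000 compounds tested this way, about 930 (1.4%) reached 50% or more in at least one test.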

| structure | Mtb growth Cornell | Mtb heat-shock |
|---|---|---|
| `Cc1cccc(N2CCN(CCC(=O)NCc3cnc(C)cn3)CC2)c1` | 1.075% | -28.97% |
| `CSCC(C)(O)CNc1ccccn1` (stereo not given) | - | -5.467% |
| `CO[C@H]1COCCN(C(=O)c2ccc(C#N)cc2)C1` | -5.469% | -29.98% |
| `O=C(c1cncnc1)N1CCCC(c2nccs2)C1` (stereo not given) | -0.2911% | -2.82% |
| `CNS(=O)(=O)c1ccc(C(=O)NC2CCc3nc(C)cn3C2)o1` (stereo not given) | - | 5.301% |
| `Cc1ccsc1C1CC(=O)Nc2c1cnn2C(C)C` (stereo not given) | 32.44% | 5.923% |
| `Cc1nn(C)c(N(C)C)c1CNCc1cccnc1N1CCOCC1` | 25.07% | -16.33% |
| `OC1(CN2CCCCC2)CCN(c2nccc(C(F)(F)F)n2)C1` (stereo not given) | - | -17.56% |
| `Cc1noc(C)c1CN1CCc2ncc(CN3CCCC3)n2CC1.O=C(O)C(F)(F)F.O=C(O)C(F)(F)F` | 9.661% | -18.34% |
| `Cc1ccc(CNC(=O)NCc2nccn2C)c(OC(C)(C)C)c1` | 5.415% | 2.123% |
| `COc1ccc(Cl)cc1-n1nc(C2CCCC2)nc1Cn1cnnn1` | 22.29% | 5.175% |
| `[H][C@]12CC[C@@H](N(C)c3cccnn3)[C@@]1([H])CN(Cc1ccccc1C(=O)O)C2` | 20.94% | 13.6% |
| `CN(C)c1ncc(-c2cc(C(=O)N3CCCC3)n(CC3CC3)c2)cn1` | - | -15.03% |
| `[H][C@@]12CCN(C(=O)NC(C)C)CC[C@]1(C(=O)N(C)C)CCN2CC` | - | -7.069% |
| `CCc1nnc2n1CCN(C(=O)CCc1ccc(C)c(Cl)c1)C2` | 23.47% | 9.611% |
| `Cn1cc(C2CCCN2Cc2csc(C(C)(C)C)n2)cn1` (stereo not given) | -2.183% | -0.7502% |
| `COc1ccc2c(c1)CCCN(CC(=O)NCC1CCCO1)C2` (stereo not given) | 3.081% | 28.64% |
| `Cc1cc(NCCc2nc(C)cs2)nc(-c2cccnc2)n1` | -36.49% | 6.905% |
| `COc1coc(CN2CCCC(CCc3c(F)cccc3F)C2)cc1=O` (stereo not given) | 42.09% | -2.666% |
| `O=C(c1ccn(-c2cccc(F)c2)n1)N1CCCC(n2cccn2)C1` (stereo not given) | - | -1.972% |
| `Cc1nc(C)c(C(=O)N2CCCC(c3cnccn3)C2)s1` (stereo not given) | -13.99% | -8.099% |
| `CCCc1nc(C)c(C(=O)NC2CCN(C3CC3)C2)s1` (stereo not given) | 14.37% | 2.045% |
| `Cc1cc(=O)[nH]c(-n2nc(-c3ccccc3)cc2N)n1` | 94.92% | 105.3% |
| `COc1ccc(OCCN(C)Cc2nc3c(cnn3C)c(=O)[nH]2)cc1` | -2.408% | 12.34% |
| `Cc1ccc(CN2CCC3(CC2)CCN(C(=O)c2cccn2C)C3)cc1.O=C(O)C(F)(F)F` | 37.48% | -19.19% |
| `[H][C@@]12CS(=O)(=O)C[C@]1([H])N(Cc1ccsc1)CCN2C(=O)C1CCC1` | 3.4% | -19.98% |
| `COCC(C)NC(=O)c1sccc1-n1cnnn1` (stereo not given) | -13.7% | -7.304% |
| `COc1cc(C)nc(N2CCN(C(=O)c3ccccc3C)CC2)n1` | -11.16% | -10.78% |
| `O=C(O)c1ccccc1-c1ccc(CN2CCOCC2)cn1` | 14.19% | -9.285% |
| `CC(=O)N1CCC2(CCN(C(=O)c3ccc(F)c(C(F)(F)F)c3)C2)C1` (stereo not given) | 5.979% | -11.7% |
| `[H][C@@]12CN(C(=O)NCC)C[C@]1([H])OCC(=O)N2CC1CCCCC1` | 2.27% | 3.748% |
| `Cc1ccc2c(C)c(C(=O)NCc3csc(N)n3)oc2c1` | - | -2.831% |
| `C[C@H](NC(=O)N1CCN(c2ccc(Cl)cc2)CC1)C(=O)N1CCSCC1` | 11.26% | 14.56% |
| `CCN(C)C(=O)C1(c2ccc(F)cc2F)CCC1` | -1.885% | -11.61% |
| `CC(=O)N1CCN(c2cnccn2)CC(CO)C1` (stereo not given) | 10.91% | 2.307% |
| `[H][C@@]12CS(=O)(=O)C[C@]1([H])N(C(=O)c1cnc(C)nc1)CCN2CCC` | - | 5.588% |
| `COc1cc(CN(C(=O)Nc2cccnc2OC)C2CC2)ccc1O` | 18.43% | 21.93% |
| `CCCc1nc(C(C)(C)NC(=O)C2CC(=O)N(CC(C)C)C2)no1` (stereo not given) | - | -0.2601% |
| `Cc1ccnc(N2CCC(OCCN3CCCCC3)C2)n1` (stereo not given) | -20.41% | 2.106% |
| `Cc1ccc(CN(CC(=O)NC2CCOCC2)c2ccc(F)cc2)o1` | 92.31% | -1.431% |
| `Cc1ccc(=O)n(CC2(O)CCN(Cc3cc(C)c(O)c(C)c3)CC2)n1.O=C(O)CC(O)(CC(=O)O)C(=O)O` | 2.551% | -14.34% |
| `Cc1ccc(NC2CCN(C(=O)CCc3ccccc3)CC2)nn1` | 33.81% | -1.712% |

Repeated from the top, 4 entries:

{"structure": "Cc1cccc(N2CCN(CCC(=O)NCc3cnc(C)cn3)CC2)c1", "Mtb growth Cornell": 1.075, "Mtb heat-shock": -28.97}
{"structure": "CSCC(C)(O)CNc1ccccn1", "stereo": "stereo not given", "Mtb heat-shock": -5.467}
{"structure": "CO[C@H]1COCCN(C(=O)c2ccc(C#N)cc2)C1", "Mtb growth Cornell": -5.469, "Mtb heat-shock": -29.98}
{"structure": "O=C(c1cncnc1)N1CCCC(c2nccs2)C1", "stereo": "stereo not given", "Mtb growth Cornell": -0.2911, "Mtb heat-shock": -2.82}